Assay [1] concerns the target T1, Flag-tagged Cry2 C432A (mouse) (UniProt Q9R194).
T1 sequence: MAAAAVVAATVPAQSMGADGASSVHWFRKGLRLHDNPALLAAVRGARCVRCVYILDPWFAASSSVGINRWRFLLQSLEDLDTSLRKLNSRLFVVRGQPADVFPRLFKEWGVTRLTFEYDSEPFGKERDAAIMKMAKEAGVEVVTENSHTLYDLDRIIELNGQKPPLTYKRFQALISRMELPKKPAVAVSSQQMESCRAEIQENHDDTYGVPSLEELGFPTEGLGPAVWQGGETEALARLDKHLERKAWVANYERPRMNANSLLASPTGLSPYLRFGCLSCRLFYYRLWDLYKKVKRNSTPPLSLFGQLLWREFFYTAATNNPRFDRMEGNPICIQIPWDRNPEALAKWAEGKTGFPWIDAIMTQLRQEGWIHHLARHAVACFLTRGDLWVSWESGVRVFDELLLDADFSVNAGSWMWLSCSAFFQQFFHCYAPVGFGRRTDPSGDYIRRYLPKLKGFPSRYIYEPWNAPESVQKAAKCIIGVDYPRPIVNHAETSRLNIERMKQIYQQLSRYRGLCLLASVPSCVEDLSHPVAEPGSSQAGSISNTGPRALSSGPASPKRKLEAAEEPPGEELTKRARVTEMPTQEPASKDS
As to the kind of experiment: co-IP.

For assay [2], the target named is T2, Flag-tagged Cry2 (Cryptochrome 2), wild type (mouse) (UniProt Q9R194).
T2 sequence: T1 sequence with A432C
As to the kind of experiment: co-IP.

Numbering of substitutions follows the chain as printed. Results are given in words; binding and its absence hold for the method and conditions named. In cells and extracts the contact can be indirect. Some entries that bind do so weakly or less than the wild type. Where a sequence is shown, tags or fusion partners need not be part of it.

B1: Myc-tagged Fbxl3 (protein, UniProt Q8C4V4 1-428)
chain: MKRGGRDSDQDSAEEGTAEKPKRPRTTQERSQPCDWGNLLQDIVLHVFKYLPLLDRAHASQVCRNWNQVFHMPDLWRCFEFELNQPATSYLKATHPELIKQIIKRHSNHLQYVSFKVDSSKESAEAACDILSQLVNCSLKTLGLISTARPSFMDLPKSHFISALTVVFVNSKSLSSLKIDDTPVDDPSLKVLVANNSDTLKLLKMSSCPHVSPAGILCVADQCHGLRELALNYHLLSDELLLALSSEKHVRLEHLRIDVVSENPGQTHFHTIQKSSWDAFIKHSPKVNLVMYFFLYEEEFDPFFRYEIPATHLYFGRSVSKDVLGRVGMTCPRLVELVVCANGLRPLDEELIRIAERCKNLSAIGLGECEVSCSAFVEFVKMCGGRLSQLSIMEEVLIPDQKYSLEQIHWEVSKHLGRVWFPDMMPTW
Regarding B1, the binding result in assay [1] is given as “no binding”; in assay [2], “binds”.

Values taken from paper doi:10.1101/2023.03.12.532323.
